Measured values from publication doi:10.1101/2024.12.03.626679, “Structure of the SMYD2-PARP1 Complex Reveals Both Productive and Allosteric Modes of Peptide Binding” (bioRxiv, 2024).
These are yes or no findings as the source states them, for the method shown.

Chains of the proteins cited; added tags and fusions are not shown. Lines headed by an entry give the natural chain unless they say otherwise; changes in a name come on top.
UniProt Q9NRG4: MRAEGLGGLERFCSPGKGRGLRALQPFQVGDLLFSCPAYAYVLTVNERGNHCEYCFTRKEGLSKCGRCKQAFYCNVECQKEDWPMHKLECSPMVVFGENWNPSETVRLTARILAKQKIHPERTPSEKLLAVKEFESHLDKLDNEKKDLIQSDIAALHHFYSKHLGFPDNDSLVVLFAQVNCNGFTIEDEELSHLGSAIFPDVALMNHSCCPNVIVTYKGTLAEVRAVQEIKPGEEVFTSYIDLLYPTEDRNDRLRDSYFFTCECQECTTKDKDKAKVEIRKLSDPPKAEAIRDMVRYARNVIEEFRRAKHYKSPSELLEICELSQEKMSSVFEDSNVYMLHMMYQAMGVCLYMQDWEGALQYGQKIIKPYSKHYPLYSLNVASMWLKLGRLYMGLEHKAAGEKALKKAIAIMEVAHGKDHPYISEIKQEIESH

Experiments:
[1] = target: SMYD2-L351A/W356A (human) (UniProt Q9NRG4); test: condition: 631 μM PARP1 peptide in the syringe, 40 μM SMYD2 in the cell; ITC; NanoITC SV, 27°C, 25 mM Tris pH 7.5, 50 mM NaCl; 40 μM SMYD2 in the cell, 631 μM PARP1 peptide in the syringe, 16 injections of 15 μL; one-site, two-site and binding polynomial models; both purified
[2] = target: SMYD2-L351A/W356A (human) (UniProt Q9NRG4); test: crystal structure; co-crystallisation of SMYD2 proteins with AdoHcy and PARP1 peptide, hanging drop, 20°C; 20% PEG3350, 100 mM Tris pH 7.5, 5% ethanol, 1 mM PARP1 peptide, 600 μM AdoHcy; both purified

**Q.** Which binding [1] does the source give for RMKLTLKGGAAVD [PARP1 peptide (13-residue synthetic peptide, human PARP1 residues 522-534)] here?
**A.** no binding

**Q.** What about the binding [2] of the same binder?
**A.** no binding (tested: 1 mM PARP1 peptide)
